Test [1] addresses Cdc42, homogeneously geranylgeranylated in vitro (UniProt P60953). Kind of test: solution NMR (15N R2 relaxation, chemical-shift perturbations); triple-labeled RhoGDI with excess unlabeled geranylgeranylated Cdc42; the complex separated from free Cdc42 by size exclusion chromatography, no detergent; 25 °C; both purified. (In gel filtration, larger molecules generally elute earlier.)

Protein sequences, listed by entry. Tags and fused reporters are not part of them.
UniProt P60953: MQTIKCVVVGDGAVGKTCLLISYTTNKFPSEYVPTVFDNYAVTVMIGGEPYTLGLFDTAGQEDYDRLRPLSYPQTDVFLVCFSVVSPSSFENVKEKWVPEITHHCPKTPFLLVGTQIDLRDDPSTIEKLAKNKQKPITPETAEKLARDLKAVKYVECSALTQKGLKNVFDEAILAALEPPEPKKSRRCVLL

For test [2], the target named is Cy3-labeled, prenylated Cdc42 (UniProt P60953). Kind of test: FRET or BRET; dissociation assay: 80 nM dual-labeled complex (Alexa647 on RhoGDI1, Cy3 on Cdc42) mixed with excess (5 μM) unlabeled GDI; mono-exponential fits; KD calculated from the measured dissociation rate constant and the association rate constant measured for wt (assumed for the mutants); both purified.

Results are given in words; binding and its absence hold for the method and conditions named. Some results given as binding are weak or reduced against the parent protein; the word gives no strength.

B1: full-length RhoGDI1 (residues 1 to 204), bovine (protein, UniProt P19803 1-204)
chain: MAEQEPTAEQLAQIAAENEEDEHSVNYKPPAQKSIQEIQELDKDDESLRKYKEALLGRVAVSADPNVPNVVVTRLTLVCSTAPGPLELDLTGDLESFKKQSFVLKEGVEYRIKISFRVNREIVSGMKYIQHTYRKGVKIDKTDYMVGSYGPRAEEYEFLTPMEEAPKGMLARGSYNIKSRFTDDDRTDHLSWEWNLTIKKEWKD
modifications: triply labeled (2H, 13C, 15N) in the NMR samples
B1: in test [1], the binding result is on record as “binds”.

B2: Alexa647-labeled RhoGDI1 L56A (protein, UniProt P19803 1-204)
chain: MAEQEPTAEQLAQIAAENEEDEHSVNYKPPAQKSIQEIQELDKDDESLRKYKEALAGRVAVSADPNVPNVVVTRLTLVCSTAPGPLELDLTGDLESFKKQSFVLKEGVEYRIKISFRVNREIVSGMKYIQHTYRKGVKIDKTDYMVGSYGPRAEEYEFLTPMEEAPKGMLARGSYNIKSRFTDDDRTDHLSWEWNLTIKKEWKD
modifications: Alexa647 acceptor (site not stated)
Consider B2, for which, in test [2], the binding result was “binds”.

B3: Alexa647-labeled RhoGDI1 L56V (protein, UniProt P19803 1-204)
chain: MAEQEPTAEQLAQIAAENEEDEHSVNYKPPAQKSIQEIQELDKDDESLRKYKEALVGRVAVSADPNVPNVVVTRLTLVCSTAPGPLELDLTGDLESFKKQSFVLKEGVEYRIKISFRVNREIVSGMKYIQHTYRKGVKIDKTDYMVGSYGPRAEEYEFLTPMEEAPKGMLARGSYNIKSRFTDDDRTDHLSWEWNLTIKKEWKD
modifications: Alexa647 acceptor (site not stated)
Take B3: the binding entry in test [2] is reported as “binds”.

Values taken from paper PMC7616425.
